Data taken from patent publication US20250074943A1, “DLL3 BINDING PEPTIDES AND USES THEREOF” (AMGEN INC., priority 2021, published 2025).
Not every detail of the peptide structures is certain; ends, links or a residue may be inferred. For at least one compound, name, drawing or mass did not settle the structure. Bridge positions count the residues as written; N and C are the ends. Peptide text beside a SMILES is read from it. * marks the point of attachment. X11 = NCCCC[C@H](NC(=O)CCC(=O)NCCCOCCOCCOCCCN*)C(N)=O

Biological target: T1, DLL3 (Homo sapiens, UniProt Q9NYJ7)
T1 construct: The recombinant DLL3 ectodomain (rhDLL3-Fc) was biotinylated; Fc
T1 sequence (Q9NYJ7 27-492 limits assumed): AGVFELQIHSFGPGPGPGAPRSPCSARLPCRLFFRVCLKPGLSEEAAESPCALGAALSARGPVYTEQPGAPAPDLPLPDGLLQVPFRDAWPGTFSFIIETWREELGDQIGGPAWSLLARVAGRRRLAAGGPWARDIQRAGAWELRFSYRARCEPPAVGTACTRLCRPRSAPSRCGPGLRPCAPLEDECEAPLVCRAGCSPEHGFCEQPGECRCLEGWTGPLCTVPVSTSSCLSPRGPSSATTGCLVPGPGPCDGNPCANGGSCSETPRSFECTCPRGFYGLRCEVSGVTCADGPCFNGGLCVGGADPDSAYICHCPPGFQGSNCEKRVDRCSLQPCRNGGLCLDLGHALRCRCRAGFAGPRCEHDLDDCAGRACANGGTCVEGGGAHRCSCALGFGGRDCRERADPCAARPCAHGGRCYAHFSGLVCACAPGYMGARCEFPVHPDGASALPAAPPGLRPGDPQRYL
Assay: Binding of peptides with linkers and/or fluorescent agent to DLL3 (BLI, SPR; Table 6)
Experimental: Binding kinetic assays were performed using Bio-layer interferometry (BLI) technology. The recombinant DLL3 ectodomain (rhDLL3-Fc) was biotinylated using EZ-Link Sulfo-NHS-LC-LC-Biotin Kit according to the manufacturer's protocol (Pierce by Thermo Fisher Scientific). The recombinant protein was incubated with an excess of NHS-LC-LC Biotin ester, in a molar ratio of 1:3 (protein: biotin), at 25° C. for 90 min. The un-reacted biotin ester was removed by subsequent buffer exchange on 0.5 ml Zeba spin desalting columns 7K MWCO (Pierce by Thermo Fisher Scientific).
The off-rate screening of the peptides was done using a Biacore T200 instrument (Cytiva, Sweden). […] Peptides were diluted at 300 nM in PBS-P+1× buffer (Cytiva, Sweden) supplemented with 1% DMSO and 0.1% BSA, then injected over the ligand for five minutes at 30 μl/min, finally dissociation allowed for 1 h. Sensorgrams were analyzed by Biacore T200 Evaluation Software 3.0 (Cytiva, Sweden): specific binding was obtained by subtracting unspecific binding to naked biosensors and a zero analyte concentration made of binding assay buffer (double referencing). Kinetic parameters of koff were measured using a global fitting according to 1:1 Langmuir binding isotherm equation.

Structure (SMILES) | Kd [nM]
CC(C)[C@H](NC(=O)[C@@H](NC(=O)[C@H](CCC(=O)O)NC(=O)[C@H](C)N)[C@@H](C)O)C(=O)N[C@@H](CCC(=O)O)C(=O)N[C@@H](Cc1ccccc1)C(=O)N[C@@H](Cc1c[nH]c2ccccc12)C(=O)N[C@@H](Cc1c[nH]c2ccccc12)C(=O)N[C@H]1CSSC[C@@H](C(=O)N[C@H](C(=O)N[C@@H](Cc2c[nH]c3ccccc23)C(=O)NCCCOCCOCCOCCCNC(=O)CCC(=O)N[C@@H](CCCCN=[N+]=[N-])C(N)=O)[C@@H](C)O)NC(=O)[C@H]([C@@H](C)O)NC(=O)[C@H](Cc2c[nH]c3ccccc23)NC(=O)[C@H](CC(N)=O)NC(=O)[C@H](CCC(=O)O)NC(=O)[C@H](CO)NC(=O)[C@H](CC(N)=O)NC(=O)CNC(=O)[C@H](CC(N)=O)NC1=O [PepSP1274] | 21.4
CC(=O)N[C@@H](C)C(=O)N[C@@H](CCC(=O)O)C(=O)N[C@H](C(=O)N[C@H](C(=O)N[C@@H](CCC(=O)O)C(=O)N[C@@H](Cc1ccccc1)C(=O)N[C@@H](Cc1c[nH]c2ccccc12)C(=O)NCC(=O)N[C@H]1CSSC[C@@H](C(=O)N[C@@H](Cc2c[nH]c3ccccc23)C(=O)N[C@@H](Cc2c[nH]c3ccccc23)C(=O)NCC(=O)NCC(=O)NCCCOCCOCCOCCCNC(=O)CCC(=O)N[C@@H](CCCCN)C(N)=O)NC(=O)[C@H]([C@@H](C)O)NC(=O)[C@H](CCC(=O)O)NC(=O)[C@H](CC(N)=O)NC(=O)CNC(=O)[C@H](Cc2c[nH]c3ccccc23)NC(=O)[C@H]([C@@H](C)O)NC(=O)CNC(=O)[C@H]([C@@H](C)O)NC1=O)C(C)C)[C@@H](C)O [PepSP1321] (Ac-AETVEFWGCTGTWGNETCWWGG-X11; disulfide 9-18) | 36.8
